## Primary screen of a compound library

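Phenotypic screen: M. tuberculosis growth, cholesterol and DPPC medium, 4 days; the read-out is not stated. Concentration: 500 µM. The record gives no direction; compounds that gave an IC50 in retests scored well above the rest, so higher reads as more growth inhibition. About 18,000 compounds were tested under these conditions; 5% (about 900) showed 50% or more at least once.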

The filed quantity is “Percent Effect” (%).
The controls that fix the scale are not given in the record; negative values are as filed.
This is an unselected part of the compounds tested.

structure	percent effect
Cc1cc(C(=O)N(C)C(C)c2ccncc2)cc(=O)[nH]1 (centres unmarked)	-7.733
CCc1cc(C#N)ccc1NC(=O)N[C@@H]1CCCNC1	13.35
Cc1cccnc1NC(=O)CCc1cnn(C)c1	-42.6
Cc1cnn(CC2CCNCC2)c1	-0.2328
COCC(=O)N[C@H]1CN(CCS(C)(=O)=O)C[C@@H]1C(C)C	-2.914
Cc1ccc(CNCc2cscn2)c(N2CCCC2)n1	12.32
CCO[C@H]1CN(c2ncccc2C(F)(F)F)C[C@@H]1O	-14.72
O=C(CCS(=O)(=O)c1ccccn1)NC1CCCCC1	3.604
CCN(CC(N)=O)Cc1ccccc1NC(C)=O	-12.24
Cn1ccc(NC(=O)CN2CCS(=O)(=O)CC2)n1	8.664
CC(C)CCNC(=O)c1ccc2c(c1)C(=O)N(C)C2=O	-11.75
Cc1c[nH]c(C(C)NC(=O)c2ccc3[nH]nnc3c2)n1 (centres unmarked)	5.341
CCNc1nnc(SC(C)C)s1	90.82
Cc1n[nH]c(SCC(=O)N[C@@H]2CCNC[C@H]2O)n1	6.817
O=S1(=O)CCC(NCc2csc(-c3ccccn3)n2)C1 (centres unmarked)	11.49
CCN(CCn1cccn1)C(=O)c1cc(C)n[nH]1	39.44
CC[C@@]1(O)CCN(c2cc(N)nc(SC)n2)C[C@H]1O	-2.892
Cc1ccc(OCc2ccnc(N(C)C)c2)nc1	2.704
Cc1csc(N2CCN(C)CC2C)n1 (centres unmarked)	-4.531
CC1CN(S(=O)(=O)c2ccc(C#N)c(Cl)c2)CCO1 (centres unmarked)	-5.095
COCCCN1CCN(Cc2ccc(Cl)cn2)CC1	-15.38
CC(NC(=O)C(C)(C)C)c1ccncc1 (centres unmarked)	13.33
CC1CN(C)CCN1Cc1nnnn1-c1ccccc1 (centres unmarked)	-5.254
CC(C)c1cccc(NC(=O)CN2CCC(O)CC2)c1	62.28
CCC(N)c1cnn(CC)c1 (centres unmarked)	65.72
NCC(=O)N1CCC(Cc2ccccc2)CC1	3.942
CC(C)C(N)C1(CO)CCC1 (centres unmarked)	-19.39
Cc1c[nH]c(=O)c(C#N)c1	-7.132
Cc1c(Cl)cccc1NC(=O)CSc1nnc[nH]1	-13.05
N#Cc1cccc(NC(=O)CCN2CCOC2=O)c1	5.264
COc1c(CNCc2nnc(C)n2C)c(C)nn1C	-13.85
Cc1nn(C)cc1C(=O)N1CCOC2(CCCC2)C1	-5.726
NS(=O)(=O)NCC1(c2ccc(Br)cc2)CCOCC1	1.081
OCC1CCN(Cc2ccccc2)CC1	8.914
Fc1cccnc1N1CCNCC1	5.105
CN(C)CC(=O)NC(C)(C)c1nc2ccccc2n1C	-2.409
CN(CC1COCCO1)C(=O)c1ccc2[nH]nnc2c1 (centres unmarked)	-1.841
CC(C)(C)C(=O)Nc1ccc(Cl)c(C(N)=O)c1	26.69
Cn1ccnc1CSc1ncnn1C	-5.909
CNC(COC)Cc1ccccc1 (centres unmarked)	4.649
Cc1nn(C)c(C)c1CC(=O)NCCc1ccccn1	-3.84
CN(C)[C@@H]1CN(C(=O)C2CCC2)C[C@H]1CO	-21.46
CC1(C)COCCN1C(=O)COc1ccc(F)cc1F	-8.316
COC(C)(CNC(=O)[C@H]1CCCO1)C1CC1 (some centres unmarked)	3.195
CS(=O)(=O)c1ccc(NC(=O)N2CCC[C@@H]2CO)cc1	-4.301
CCCC(C)C(=O)N1CCOCC1 (centres unmarked)	-4.878
CC(=O)N1CCC(NC(=O)c2cc(C)c(C)s2)CC1	-19.03
O=C(NCc1cccs1)c1cnsn1	64.99
CCOc1ccccc1CN(CC(O)CO)C1CC1 (centres unmarked)	6.292
CCNS(=O)(=O)C1CCN(Cc2ccn(C)c2)C1 (centres unmarked)	0.3675

Measurements from “University of Dundee, Small-Polar-MMV Screening Library” (2021), ChEMBL document CHEMBL3988442.